This assay concerns the target Myc-tagged human ankyrin repeat and SOCS box protein 9 (ASB9) (human) (UniProt Q96DX5). The experiment in a line: affinity purification with mass spectrometry; anti-Myc immunoprecipitates from lysates of HEK293 cells stably expressing null, Myc-tagged ASB9 or ASB9ΔSOCS; SDS-PAGE, Coomassie G-250, in-gel trypsin digestion of bands, ESI-TOF MS/MS.

Protein sequences, listed by entry. Tags and fused reporters are not part of them.
UniProt Q96DX5: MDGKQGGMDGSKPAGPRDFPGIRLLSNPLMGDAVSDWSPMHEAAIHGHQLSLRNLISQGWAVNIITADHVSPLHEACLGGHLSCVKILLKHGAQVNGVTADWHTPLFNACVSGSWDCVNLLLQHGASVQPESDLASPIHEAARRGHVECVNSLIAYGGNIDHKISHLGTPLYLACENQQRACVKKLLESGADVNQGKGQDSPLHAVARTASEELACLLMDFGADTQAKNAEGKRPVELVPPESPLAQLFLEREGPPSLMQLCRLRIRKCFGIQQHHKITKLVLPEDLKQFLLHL

No constants are given. Whether binding was seen depends on the method and setting. Binding seen in cells or lysates may run through a third protein. Here binding means that the protein was enriched with, or labelled near, the bait; the list need not be complete.

With “ubiquitous mitochondrial creatine kinase (uMtCK), endogenous (from UniProt P12532 40-417) (enzyme)”, the binding result is “binds”.

These data come from article PMC2852384.
